Values from PubChem BioAssay AID686937 (Drosophila RNAi Screening Center, 2013)

Test: 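Genes in the fly needed for secretion of protein constitutively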 (primary screen)
System: Drosophila S2 cells expressing secreted horseradish peroxidase
Reagent: long dsRNA against Drosophila genes
Time to read-out: about 5.5 days (5 days dsRNA, then 12 h reporter induction)
Conditions: reporter expression induced after 5 days of dsRNA, read 12 h later; inducer not stated
Measurement: 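After 5 days of dsRNA and 12 h of reporter induction, medium peroxidase read by chemiluminescence and scored as per-plate z-score; higher values mean more reporter released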
Reading the numbers: z-score: higher = more reporter secreted into medium
In all, the deposit lists about 23,000 reagents; this is an unselected part of those that have a named target and a result. 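Reduced-secretion tags in replicate 1 do not always agree with the z-scores; no criterion for assigning the tags was given.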 Names joined by + are all predicted targets of the reagent. Not given: the amount of reagent.

After knock-down of Tsp42Eg (Tetraspanin 42Eg) [DRSC06112], the record shows z-score, replicate 1 = 0.24; z-score, replicate 2 = 0.34.
Notum [DRSC09959] showed z-score, replicate 1 = 0.47; z-score, replicate 2 = 0.46.
After knock-down of Yp2 (Yolk protein 2) [DRSC18732] the results were z-score, replicate 1 = 0.18; z-score, replicate 2 = 0.26.
Nrt (Neurotactin) [DRSC11237] showed z-score, replicate 1 = 0.43; z-score, replicate 2 = 0.29.
Depletion of CAH13 (Carbonic anhydrase 13) [DRSC06128] resulted in: z-score, replicate 1 = 0.22; z-score, replicate 2 = 0.15.
After knock-down of spn-A (spindle A) [DRSC16812], the record shows z-score, replicate 1 = -0.09; z-score, replicate 2 = 0.08.
lolal (lola like) [DRSC06948] showed z-score, replicate 1 = 0.47; z-score, replicate 2 = 0.32.
Knock-down of Cpr66D (Cuticular protein 66D) [DRSC10640] resulted in: z-score, replicate 1 = -0.64; z-score, replicate 2 = -0.15.
Knock-down of Cpr66D (Cuticular protein 66D) [DRSC10646] resulted in: z-score, replicate 1 = -8.02; z-score, replicate 2 = 0.22.
CG14286 [DRSC14767] gave z-score, replicate 1 = 0.42; z-score, replicate 2 = 0.28.
For bcd (bicoid) [DRSC12624], the entry reads z-score, replicate 1 = 0.36; z-score, replicate 2 = 0.37.
Obp56d (Odorant-binding protein 56d) [DRSC06064] gave z-score, replicate 1 = 0.27; z-score, replicate 2 = 0.28.
With knock-down of MtnD (Metallothionein D) [DRSC22733] the results were z-score, replicate 1 = 0.09; z-score, replicate 2 = -0.17.
Depletion of snoRNA:Me28S-A982b + Uhg4 + snoRNA:Me28S-G3255a + 1 more [DRSC05143] gave: z-score, replicate 1 = 0.09.
After knock-down of CG14313 [DRSC14792], the screen gave z-score, replicate 1 = 0.27; z-score, replicate 2 = 0.33.
CG13607 [DRSC14610] gave z-score, replicate 1 = 0.47; z-score, replicate 2 = 0.5.
For COX5A (Cytochrome c oxidase subunit 5A) [DRSC16611], the values are z-score, replicate 1 = -0.19; z-score, replicate 2 = -0.43.
SMC1 (Structural maintenance of chromosomes 1) [DRSC16846] showed z-score, replicate 1 = 0.36; z-score, replicate 2 = 0.22.
CG7194 [DRSC10784] scored z-score, replicate 1 = 0.27; z-score, replicate 2 = 0.47.
Silencing of CG15891 + CG15892 [DRSC18095] gave: z-score, replicate 1 = 0.13; z-score, replicate 2 = 0.4.
Knock-down of CG15891 + CG15892 [DRSC18096] gave: z-score, replicate 1 = 0.35; z-score, replicate 2 = 0.56.
After knock-down of Rat1 (Rat1 5'-3' exoribonuclease) [DRSC02044], the screen gave z-score, replicate 1 = -0.14; z-score, replicate 2 = 0.25.
For cdm (cadmus) [DRSC16213] the deposit lists z-score, replicate 1 = 0.16; z-score, replicate 2 = 0.5.
After knock-down of CG31802 [DRSC02459] the results were z-score, replicate 1 = 0.32; z-score, replicate 2 = 0.27.
Silencing of gammaTub23C (gamma-Tubulin at 23C) [DRSC00820] gave: z-score, replicate 1 = 0.1; z-score, replicate 2 = 0.11.
After knock-down of Veneno [DRSC16537], the screen gave z-score, replicate 1 = 0.14; z-score, replicate 2 = 0.31.
For P32 [DRSC06988], the entry reads z-score, replicate 1 = 0.33; z-score, replicate 2 = 0.27.
